Reference: patent US20030082101A1, “Accelerators for increasing the rate of formation of free radicals and reactive oxygen species” (Cavalier Discovery, priority 2001, published 2003)
At least one compound was matched to its structure with a doubt left.

Tested on: deoxyribose
Test: TBARS assay, additives with ferrous iron/EDTA, ultrasound (Example 11)
Assay type: biochemical
Conditions: 0.075 mM additive; 0.05 mM ferrous iron, 0.075 mM EDTA
Method: The following example uses the thiobarbituric acid-reactive substances (TBARS) assay to identify metals that enhance radical production during ultrasound. All solutions are prepared in pH 7.5 phosphate buffer containing approximately 2 mM deoxyribose, 0.01% hydrogen peroxide, 0.05 mM ferrous iron added as FeSO4 hydrate, 0.075 mM EDTA, and the additives indicated in the table below. Solutions are sonicated at 30 W, 2 MHz, 32-34 degrees Celsius for ten minutes using a PZT-8 1.8 cm diameter custom transducer. The sonicated solution is placed on an orbit shaker rotating at 25 RPM to ensure even sonication of the solution while the transducer is held stationary. Control solutions are placed in a controlled temperature bath at 32-34 degrees Celsius without sonication. After 10 minutes of treatment, 1 mL test solution is placed in a test tube followed by 2 mL of 1% 2-thiobarbituric acid and 2 mL of 2.8% trichloroacetic acid. The test tube is sealed and heated to 90 degrees Celsius for 30 minutes and allowed to cool to room temperature for 20 minutes. The absorbance at 532 nm is measured. The enhanced radical production during ultrasound exposure is determined by comparing the amount of deoxyribose degradation that occurs in the sonicated solution versus the control solution using the following equation: [formula]

SMILES: Cc1cc2c(C(C)C)c(O)c(O)c(C=O)c2c(O)c1-c1c(C)cc2c(C(C)C)c(O)c(O)c(C=O)c2c1O [Gossypol]
- % Ultrasound Mediated Activity vs Control: >100%
